Source: patent publication US20090197263

Protein sequences, listed by entry. Tags and fused reporters are not part of them. Residues count along the entry.
UniProt Q9UBB5, 145-213: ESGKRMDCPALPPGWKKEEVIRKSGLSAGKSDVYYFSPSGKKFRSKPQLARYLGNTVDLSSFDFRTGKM

Target: MBD2-MBD (methyl-binding domain of MBD2) (Homo sapiens) (UniProt Q9UBB5)
Assay: FP
Conditions: purified recombinant protein, protein details: C-terminal 6xHis (pFBC6H baculovirus vector, Sf9), label: 5'-6FAM, folded or branched DNA

“ATCGTCGTACGTTTTCGTACGACGAT [unmethylated hairpin]” gave a pEC50 (no appreciable binding in range tested, EC50>>10 uM suggested) of under 5.00.
In the case of “ATCGTCGTACGTTTTCGTACGACGAT [3 asymmetrically methylated CpG hairpin]”, the pEC50 (5mC at the 3 CpGs toward the 3' end (C16, C20, C23), no appreciable binding in range tested, EC50>>10 uM suggested, variant of unmethylated hairpin) was under 5.00.
“ATCGTCGTACGTTTTCGTACGACGAT [3 symmetrically methylated CpG hairpin]” was tested, and the pEC50 (5mC at all 6 CpGs (C3, C6, C10, C16, C20, C23), 10 nM hairpin, 50 mM NaCl, 1 mM MgCl2, 10 mM Tris pH 7.4, room temp, variant of unmethylated hairpin) was 6.65.

pEC50: −log10 of the molar value. The exact form of at least one protein or probe is not confirmed.
